According to PubChem BioAssay (NCATS):
The inconclusive results got no clear call from the source; some entries with a clear call stand among them for comparison. Calls of active or inactive are those of the source. Calls follow the shape of the dose curve; as a rule, active = well fitted curve in either direction with a large enough effect (not every such curve was filed as active); inconclusive = small, poorly fitted or top-dose-only effect, or another doubt; inactive = flat fitted curve, though single readings scatter.

test: Stat Signaling Pathway (AID 446); settings: ME-180 (cervical carcinoma) SIE beta-lactamase reporter, IL-6 stimulated, 5 h; at 7.69 µM (top of the series) unless noted;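 also: ME-180 cervical cancer cells given 40 pM IL-6 alongside compound; SIE-controlled beta-lactamase reporter measured as 460/530 nm FRET emission ratio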
Summary of the method: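 Overnight-plated ME-180 cells bearing a STAT Inducible Element beta-lactamase reporter; 5 h co-exposure to compound and 40 pM IL-6; values normalized to 300 pM IL-6 and 125 nM JAK inhibitor controls.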
% is scaled to controls: 0 for no effect and ±100 for the full control effect.

activity, negative = inhibition, inactive:
COc1ccc(-c2ncncc2-c2csc(C)n2)c(O)c1 0.893% [at 17.2 µM]
CCN(CC)CCCC1(CN)OCCc2ccccc21 (configuration not stated) 8.19% [at 17.2 µM]
COC(=O)c1cc(S(=O)(=O)N2CCOCC2)c(N2CCOCC2)cc1N1CCOCC1 5.81% [at 17.2 µM]
Cc1ccc(/C=c2\sc3n(c2=O)CN(c2ccc(Br)cc2)CN=3)o1 0.614% [at 17.2 µM]
O=C(c1ccco1)N1CCC[C@@]2(CCN(c3ccccn3)C2)C1 -0.822%
O=C(Oc1ccccc1)N1CCC2(CC1)CCN(c1ccccc1)CC2 -1.28%
COc1cccc(N2CCN(C(=O)c3ccc(=O)oc3)CC2C)c1 (configuration not stated) -1.83% [at 17.2 µM]
O=C(Nc1cccc(F)c1)N1CC[C@@]2(CCCN(C(=O)c3ccco3)C2)C1 8.88%
S=c1c2[nH]cnc2ncn1CCSc1ncnc2nc[nH]c12 7.7%
Cc1nc(=O)c(-c2ccccc2)c(C)n1-c1ccc(S(N)(=O)=O)cc1 7.76% [at 17.2 µM]
Nc1nc2n(n1)C(c1cccs1)CC(c1ccc(Br)cc1)N2 (configuration not stated) 4.42% [at 17.2 µM]
CN=c1sc2ccccc2n1CC(O)COCc1ccco1 (configuration not stated) -2.56% [at 17.2 µM]
O=C(O)c1cc(Cl)cc(Cc2cc(Cl)cc(C(=O)O)c2O)c1O -2.39%
Nc1nnnn1/N=C/c1ccco1 -1.38% [at 17.2 µM]
O=C(CN1C(=O)c2ccccc2S1(=O)=O)NCCSCc1ccco1 -4.36% [at 17.2 µM]
C=CCn1c(-c2ccccc2)n[nH]c1=S 3.46% [at 17.2 µM]
NC[C@@H](O)CSCc1ccc(Cl)cc1 0.417%

activity, negative = inhibition, inconclusive:
O=C(O)c1oc(C(=O)O)c(C(=O)O)c1C(=O)O 12.1% [activator]
O=C(Cc1ccccc1)Nc1cccc(-c2nnc(-c3ccco3)o2)c1 -45.9% [inhibitor] [at 17.2 µM]
CC1(C)S[C@@H]2[C@H](C(=O)O)N=C(Cc3ccccc3)N2[C@H]1C(=O)O -57.9% [inhibitor]
O=C(O)CSc1nc2ccccc2[nH]1 44.3% [activator]
Nc1nonc1-c1noc(-c2ccccc2)n1 87.8% [activator] [at 17.2 µM]
CCN(CC)CCN1C(=O)c2cccc3cc(N)cc(c23)C1=O 37.4% [activator]
CC(=O)Nc1nc(NC(C)=O)c2[nH]c(CO)nc2n1 14.5% [inhibitor]
Sc1ccc2ccccc2c1CNCc1ccccc1 -56.5% [inhibitor]
CCCCCC#CCC#CCC#CCC#CCCCC(=O)O -38.7% [inhibitor] [at 17.2 µM]
O=C(O)C[n+]1ccccc1 2.04% [activator]

Part of the list above in order of length of the SMILES, falling.
activity, negative = inhibition, inconclusive:
O=C(Cc1ccccc1)Nc1cccc(-c2nnc(-c3ccco3)o2)c1 -45.9% [inhibitor] [at 17.2 µM]
Nc1nonc1-c1noc(-c2ccccc2)n1 87.8% [activator] [at 17.2 µM]
Sc1ccc2ccccc2c1CNCc1ccccc1 -56.5% [inhibitor]
